The values that follow come from US9018351B2, “Peptide aptamers against tenascin C” (Industry-Academy Cooperation Foundation, priority 2007, dated 2015).

The test system of this data set is tenascin C. The data set is described as follows: Biopanning of tenascin C-binding phages (Ph.D.-12 library), clone sequencing. Particulars: 35 clones sequenced after three rounds of biopanning. How it is done:
The phage-display peptide library (Ph.D.-12) was purchased from New England Biolabs (Beverly, Mass.). The phage library was panned for O/N at 4° C. in 96-well plates coated with 0.15 ml (His)6-tagged-TNCfnA-D (10 μg/ml) or full-length tenascin C protein (20 μg/ml) in 0.1 M NaHCO3 (pH 8.6). The wells were then blocked with blocking buffer (0.1 M NaHCO3 [pH 8.6], 0.5% BSA and 0.02% NaN3) for 1 h at 4° C. and 2×10^11 pfu/ml phages were added to the target protein-coated plates. After incubation for 30 min at 25° C., unbound or weakly bound phages were removed by rinsing ten times with TBST, and bound phages were eluted by incubation for 8 min in 0.1 ml elution buffer (0.2 M glycine-HCl [pH 2.2] and 0.1% BSA). […] After three rounds, independent clones were isolated on LB/IPTG/X-gal plates, and phage titers were calculated from the number of plaques formed.
Thirty five clones from the two independent selections were sequenced. […] The nucleotide sequences of the isolated DNAs were determined with an automatic sequencer (ABI prism) and primer 5′-[…]-3′ (SEQ ID NO:20).
To screen for peptide aptamers that bound to the cancer-specific tenascin C protein isoform, the alternatively spliced domain of fibronectin type III (FN III) (A1-D) was expressed as a His-tagged tenascin C protein (designated His-TNCfnA-D in FIG. 2A). […]

As to FHKPFFPKGSARGGG [peptide aptamer #1], the “Frequency (identical clones among the sequenced clones)” value stood at 13. For FHKHKSPALSPVGGG [peptide aptamer #2], the “Frequency (identical clones among the sequenced clones)” value was 19.
